This is an account of results in article PMC9553925.

Results are given in words; binding and its absence hold for the method and conditions named. A result given as binding can be weak or reduced; the word gives no strength.

For this test, the target named is T1, ATP synthase subunit-a (T. brucei) (T. brucei (endogenous in procyclic Lister strain 427)) (UniProt P24499).
T1 sequence: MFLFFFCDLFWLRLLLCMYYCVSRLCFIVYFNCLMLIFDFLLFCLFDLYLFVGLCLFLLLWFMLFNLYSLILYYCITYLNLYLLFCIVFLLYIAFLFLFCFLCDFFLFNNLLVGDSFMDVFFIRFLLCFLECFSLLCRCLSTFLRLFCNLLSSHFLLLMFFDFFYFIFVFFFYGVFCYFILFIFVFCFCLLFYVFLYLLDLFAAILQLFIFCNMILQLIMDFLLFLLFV
The experiment in a line: cryo-EM structure; ATP synthase dimers purified from T. brucei procyclic mitochondria in GDN with added β-DDM and phospholipids, pH 8.0; consensus dimer 3.2 Å, membrane region 2.7 Å, peripheral stalk 3.7 Å, rotor 3.7 Å, ten rotational substates 3.5–4.3 Å; both purified.

For ATP synthase subunit-e (T. brucei), the binding entry is listed as “binds”.
